Measured values reported in PubChem BioAssay AID590 (National Center for Advancing Translational Sciences (NCATS), 2007).
Hit rate of the full screen: of about 59,000 compounds, about 6,500 (11%) were called active. The shares of active, inactive and inconclusive entries below differ from those in the screen. Rule as the data show it: active = max dye-equivalent concentration above about 10 nM; inconclusive = mostly about 1.1 nM to 9.6 nM; inactive = weaker than that.

assay: qHTS Assay for Spectroscopic Profiling in A350 Spectral Region; settings: Compound autofluorescence, 340/450 nm, Alexa 350 dye-equivalents; hits give high values

| SMILES | max dye-equivalent concentration |
| --- | --- |
| O=C(CSc1ncn(-c2ccccc2)n1)N1CCN(c2ccccc2)CC1 | inactive |
| c1ccc(OCc2nn3c(-c4cccnc4)nnc3s2)cc1 | inconclusive: 1.2 nM |
| CCOc1ccc(-c2[nH]nc3c2C(c2cccnc2)C(C#N)=C(N)O3)cc1 (stereo not given) | inconclusive: 3.3 nM |
| CC(=O)Nc1nc(N2C(=O)c3ccccc3C2=O)n(-c2ccccc2)n1 | inconclusive: 1.5 nM |
| CCc1c(C#N)c(SCc2c(C)noc2C)nc2c1C(=O)CC(C)(C)C2 | inactive |
| O=C(Cn1nc(C(F)(F)F)c2c1CCCC2)Nc1ccc2c(c1)OCO2 | inconclusive: 4 nM |
| Cc1nn2c(-c3ccccc3)c(-c3ccccc3)nc2[nH]c1=O | active: 23 nM |
| COc1ccccc1CNc1ncncc1-c1cccc(C#N)c1 | inactive |
| C=CCn1c(SCC(=O)N2CCCC2)nc2cc(C(=O)NCC3CCCO3)ccc2c1=O (stereo not given) | inconclusive: 5.9 nM |
| CCOC(=O)C1CCN(C(=O)CCNC(=O)Cn2ccc3ccccc3c2=O)CC1 | inconclusive: 5.9 nM |
| CN1C(=O)c2ccc(N(C)C)cc2C1=O | inactive |
| COc1ccc(-c2nc(N3CCCC3)[nH]c(=O)c2C#N)cc1 | active: 12 nM |
| Cc1cccc(NC(=O)c2cc(NC(=O)c3ccco3)ccc2N2CCCCC2)c1 | active: 84 nM |
| COCCSc1nnc(NC(=O)Cc2cccs2)s1 | inconclusive: 1.3 nM |
| CCOC(=O)C1(C)NC(c2ccc(N(C)C)cc2)C2C(=O)N(CC)C(=O)C21 (stereo not given) | inconclusive: 8.6 nM |
| CC(=O)Nc1ccc(S(=O)(=O)N2CCCc3ccccc32)cc1 | inconclusive: 1.1 nM |
| CCOC(=O)N1CCC(NS(=O)(=O)c2ccc3c(c2)OCC(=O)N3)CC1 | inconclusive: 1.8 nM |
| CCCC1(C(=O)OCC)NC(c2ccc(N(C)C)cc2)C2C(=O)N(c3ccc(OCC)cc3)C(=O)C21 (stereo not given) | inconclusive: 6 nM |
| COc1ccc(Nc2nc(N)nc(C(F)(F)F)n2)c(OC)c1 | inactive |
| COC(=O)c1cc(NCc2ccccc2F)ccc1N1CCOCC1 | inconclusive: 1.7 nM |
| COc1ccc(OC)c(NC(=O)c2cc3ccccc3o2)c1 | active: 76 nM |
| COc1ccc(CN(C(=O)c2ccco2)C2CC(C)N(C)CC2C)cc1 (stereo not given) | inactive |
| CN(C)c1ccc(-c2nn3c(-c4cccnc4)nnc3s2)cc1 | active: 120 nM |

| SMILES | max dye-equivalent concentration |
| --- | --- |
| O=C(O)c1ccc(CNc2ccccc2C(=O)O)cc1 | active: 69 nM |
| O=C1CCCc2c1cc(C(=O)Nc1ccc(Cl)cn1)c(=O)n2-c1ccccc1 | inconclusive: 1.5 nM |
| COc1ccc(N2C(=O)CCC(C(=O)NCCN3CCOCC3)C2c2ccc(OC)c(OC)c2)cc1 (stereo not given) | inconclusive: 3.9 nM |
| COC(=O)C1=CN(C2CC2)C=C(C(=O)OC)C1c1ccccc1OC | active: 8200 nM |
| C[C@@H]1[C@H]2CC[C@@H]3[C@@H]4CC=C5C[C@@H](N(C)C)CC[C@]5(C)[C@@H]4CC[C@@]32CN1C | inactive |
| COC(=O)C1=CN(C)C=C(C(=O)OC)C1c1ccc(O)c(OC)c1 | active: 270 nM |
| CNC(=O)CSc1nnc(-c2cc(C)cc(C)c2)o1 | active: 17 nM |
| CC1(CCc2ccc3c(c2)OCO3)NC(=O)c2ccccc2N1 (stereo not given) | active: 1200 nM |
| CN(C)S(=O)(=O)N(CCN1CCOCC1)Cc1ccccc1F | inconclusive: 1.1 nM |
| CCc1ccc(S(=O)(=O)NCc2cn3cccc(C)c3n2)s1 | inactive |
| Cc1ccc(-c2nnn(CC(=O)Nc3ccccc3-c3ccccc3)n2)c(-n2cnnn2)c1 | inconclusive: 3.4 nM |
| CCCNC(=O)c1ccccc1NS(=O)(=O)c1ccc(OC)c(OC)c1 | inconclusive: 1.7 nM |
| CCCOc1ccc(-c2nnc(N)s2)cc1 | inconclusive: 2.3 nM |
| CCN(CC)C(=O)c1sc2nc(-c3ccncc3)[nH]c(=O)c2c1C | active: 84 nM |
| Cn1c(SCC(=O)c2ccc(F)cc2)nc2cccnc21 | inconclusive: 2 nM |
| O=C(c1ccccc1)c1nc2ccccc2[nH]c1=O | inconclusive: 1.5 nM |
| COc1ccc(C)cc1NC(=O)c1nc2nc(C)cc(C)n2n1 | inconclusive: 1.7 nM |
| COc1cc2c(cc1OC)CN(C(=O)c1cc3ccccc3oc1=O)CC2 | inconclusive: 2 nM |
| CCN1CCCC1CNC(=O)CCNC(=O)c1cc(OC)c(OC)c(OC)c1 (stereo not given) | inconclusive: 4.5 nM |
| O=c1c(CCc2ccccc2)nc2cnc(N3CCNCC3)nc2n1CCc1ccccc1 | inconclusive: 9.9 nM |
| CCC(=NC(C)c1ccccc1)c1c(O)n(C)c(=O)n(C)c1=O (stereo not given) | inconclusive: 1.2 nM |
| Cc1cc(C)nc(N2CCN(c3nc(C)cc(C)n3)CC2)n1 | active: 33 nM |
| CC(C)c1ccc(-c2nc(N3CCCCC3)[nH]c(=O)c2C#N)cc1 | active: 52 nM |

16 consecutive entries out of the list so far, for reference:

| SMILES | max dye-equivalent concentration |
| --- | --- |
| COc1ccc(N2C(=O)CCC(C(=O)NCCN3CCOCC3)C2c2ccc(OC)c(OC)c2)cc1 (stereo not given) | inconclusive: 3.9 nM |
| COC(=O)C1=CN(C2CC2)C=C(C(=O)OC)C1c1ccccc1OC | active: 8200 nM |
| C[C@@H]1[C@H]2CC[C@@H]3[C@@H]4CC=C5C[C@@H](N(C)C)CC[C@]5(C)[C@@H]4CC[C@@]32CN1C | inactive |
| COC(=O)C1=CN(C)C=C(C(=O)OC)C1c1ccc(O)c(OC)c1 | active: 270 nM |
| CNC(=O)CSc1nnc(-c2cc(C)cc(C)c2)o1 | active: 17 nM |
| CC1(CCc2ccc3c(c2)OCO3)NC(=O)c2ccccc2N1 (stereo not given) | active: 1200 nM |
| CN(C)S(=O)(=O)N(CCN1CCOCC1)Cc1ccccc1F | inconclusive: 1.1 nM |
| CCc1ccc(S(=O)(=O)NCc2cn3cccc(C)c3n2)s1 | inactive |
| Cc1ccc(-c2nnn(CC(=O)Nc3ccccc3-c3ccccc3)n2)c(-n2cnnn2)c1 | inconclusive: 3.4 nM |
| CCCNC(=O)c1ccccc1NS(=O)(=O)c1ccc(OC)c(OC)c1 | inconclusive: 1.7 nM |
| CCCOc1ccc(-c2nnc(N)s2)cc1 | inconclusive: 2.3 nM |
| CCN(CC)C(=O)c1sc2nc(-c3ccncc3)[nH]c(=O)c2c1C | active: 84 nM |
| Cn1c(SCC(=O)c2ccc(F)cc2)nc2cccnc21 | inconclusive: 2 nM |
| O=C(c1ccccc1)c1nc2ccccc2[nH]c1=O | inconclusive: 1.5 nM |
| COc1ccc(C)cc1NC(=O)c1nc2nc(C)cc(C)n2n1 | inconclusive: 1.7 nM |
| COc1cc2c(cc1OC)CN(C(=O)c1cc3ccccc3oc1=O)CC2 | inconclusive: 2 nM |

Next records follow.

| SMILES | max dye-equivalent concentration |
| --- | --- |
| COCCNC(=O)CSc1nc2cc(OC)c(OC)cc2c(=O)n1CCC1=CCCCC1 | inactive |
| CCN(CC)S(=O)(=O)c1ccc2c(c1)nc(SCC(=O)NC1CC1)n2-c1ccccc1OC | inactive |
| [N-]=[N+]=CC(=O)CNC(=O)[C@@H](Cc1ccccc1)N1C(=O)c2ccccc2C1=O | active: 22 nM |
| CN(C)c1ncnc2ccc(-c3cccnc3)cc12 | inactive |
| CC(=O)OCC(=O)[C@@]1(O)CC[C@H]2[C@@H]3CCC4=CC(=O)C=C[C@]4(C)[C@H]3[C@@H](O)C[C@@]21C | inactive |
| NC(=O)c1oc2ccc(Cl)cc2c1NC(=O)CN1CCOCC1 | inconclusive: 3.5 nM |
| O=S(=O)(NCCOCC(F)(F)C(F)F)c1ccc2oc3ccccc3c2c1 | inactive |
| CC(=O)Nc1ccc(S(=O)(=O)Nc2ccc(N3CCOCC3)c(F)c2)cc1 | inconclusive: 2.6 nM |
| COc1ccc(N(CC(=O)NC(C)(C)C)C(=O)c2ccco2)cc1 | inactive |
| Cc1cc(-c2nnc3n2N=C(C(C)(C)C)CS3)n[nH]1 | inconclusive: 1.6 nM |
| COC(=O)C1=C(C)NC(C)=C(C(=O)OC)C1c1cc2ccc(C)cc2[nH]c1=O | active: 21 nM |
| N#Cc1c(N)oc(-c2cccs2)c1-c1cccs1 | inconclusive: 2.9 nM |
| Cc1nonc1NC(=O)OC1CCCCC1 | inconclusive: 2.5 nM |
| COCCn1c(N)c(NCc2ccccc2)c(=O)n(CC(=O)Nc2cc(C)ccc2C)c1=O | inconclusive: 7.4 nM |
| COc1ccc(C(=O)N2CCCC(c3ccccc3)C2)cc1 (stereo not given) | inactive |
| CN1C(=S)SC(N(O)C(=O)NC2CCCCC2)C1(C)C (stereo not given) | inconclusive: 1.2 nM |
| Cc1ccccc1CN1C(=O)C2(OCCCO2)c2ccccc21 | inconclusive: 1.3 nM |
| Cc1ccc(C(C)C)c(OCC(=O)N2CCOCC2)c1 | inconclusive: 1.7 nM |
| COc1ccccc1N1CCN(S(=O)(=O)c2cccc(F)c2)CC1 | inactive |
| O=c1c(-c2ccccc2)nc2cnc(N3CCOCC3)nc2n1Cc1cccs1 | inconclusive: 5.5 nM |
| CN(C)/C=N/c1sccc1C(N)=O | inactive |
| CC[C@H](c1ccc(O)cc1)[C@@H](CC)c1ccc(O)cc1 | inconclusive: 1.5 nM |
| Cc1c(Nc2ncccc2C(=O)O)cccc1C(F)(F)F | active: 15 nM |

| SMILES | max dye-equivalent concentration |
| --- | --- |
| COc1ccccc1NC(=O)C1=C(C)NC2=C(C(=O)CCC2)C1c1ccc(C)o1 (stereo not given) | active: 16 nM |
| COc1ccc(CN(C(=O)c2ccccc2OC)C2CCS(=O)(=O)C2)cc1 (stereo not given) | inconclusive: 1.5 nM |
| COc1cccc(Cn2c(=O)c(-c3cccc(C#N)c3)nc3cnc(N4CCN(C)CC4)nc32)c1 | inconclusive: 1.7 nM |
| COc1ccc2c(c1OC)C(=O)N(c1ccccn1)C2 | inactive |
| COc1ccccc1-c1cc(C(=O)NC(C)C)no1 | inactive |
| CCn1cc(C(=O)OCc2ccccc2)c(=O)c2ccc(C)nc21 | inconclusive: 1.2 nM |
| Fc1cccc(Cl)c1/C=N\N=C1c2ccccc2-c2ccccc21 | inactive |
| OC(CN1CCOCC1)CN(c1ccccc1)c1ccccc1 (stereo not given) | inconclusive: 2 nM |
| Cc1nnc(SCCn2c(Br)nc3c2c(=O)[nH]c(=O)n3C)s1 | inconclusive: 7.8 nM |
| COc1cccc(N2CCN(C(=O)C3C4C=CC5(CN(Cc6ccccc6Cl)C(=O)C35)O4)CC2)c1 (stereo not given) | inconclusive: 1.3 nM |
| Cc1cc(C(=O)OCC(=O)Nc2ncc(C(F)(F)F)cc2Cl)c(C)o1 | inconclusive: 2.2 nM |
| CC1(C)CC(=O)C2=C(C1)N(c1cccc(O)c1)C1=C(C2)C(=O)CC(C)(C)C1 | active: 190 nM |
| OC[C@@H](O)CN1CCN(c2ccccc2)CC1 | inactive |
| CN1CC2=Cc3ccccc3OC23Oc2ccccc2C=C3C1 | inconclusive: 1.2 nM |
| COc1ccc(CC(NC(C)=O)C(=O)NC2CCN(C(=O)Nc3ccc(C#N)cc3)CC2)cc1OC (stereo not given) | inconclusive: 1.6 nM |
| Cc1ccc(-n2c(C)cc3c2CCCC3=O)cc1 | inconclusive: 1.2 nM |
| O=C1NC(c2cccs2)Nc2sc3c(c21)CCCC3 (stereo not given) | active: 42 nM |
| CCCCN(CC)S(=O)(=O)c1ccc(C(=O)Nc2nnc(CSC)o2)cc1 | inconclusive: 1.9 nM |
| C=CCSc1nnc(C)n1-c1ccc(Cl)cc1 | inactive |
| CCOC(=O)CNC(=O)CSc1nnc(-c2ccccc2OC)n1CC | inconclusive: 1.5 nM |
| COc1ccc(-c2ccc(C(=S)N3CCN(C(C)=O)CC3)o2)cc1 | inconclusive: 5.7 nM |
